## Microarray screen: hit calls

Calls as published in the ROBIN set (doi:10.1002/anie.202211358).

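Compounds were printed on reactive glass slides in duplicate spots, a dye-labelled oligonucleotide was laid over them, and the fluorescence left after washing was read. The data file lists only calls. An earlier report of the laboratory on the PreQ1, TPP and SAM-II riboswitches (doi:10.1038/s41467-019-09493-3) used 1 µM RNA for 2 h and required a mean Z-score above 3 (spot signal-to-noise against the whole library), a score well above that on a control array, and duplicate spots agreeing (coefficient of variation under 100); it then also set aside compounds that hit other targets, which this list keeps. The cut-offs behind this list may differ. A missing hit is not proof of no binding, and a hit is not a measured affinity.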
Key: hit = hit, none = tested without a hit.
Compounds were drawn at random from those tested, without regard to their results.
A target missing from an entry has no call listed here.

Targets (5′ to 3′):
T1: SAM-II riboswitch RNA pseudoknot, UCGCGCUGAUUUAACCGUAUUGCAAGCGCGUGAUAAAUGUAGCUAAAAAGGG. Hit rate about 1% of about 21,000 compounds.
T2: TPP riboswitch RNA three-way junction, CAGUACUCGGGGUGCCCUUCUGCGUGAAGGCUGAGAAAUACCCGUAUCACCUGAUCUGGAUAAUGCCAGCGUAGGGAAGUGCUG. Hit rate about 0.7% of about 24,000 compounds.
T3: PreQ1 riboswitch RNA pseudoknot, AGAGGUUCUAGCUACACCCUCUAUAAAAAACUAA. From B. subtilis. Hit rate about 0.7% of about 24,000 compounds.

{"compound": "Nc1cc(C(=O)c2ccccc2C(=O)O)ccc1Cl", "T1": "none", "T2": "none", "T3": "none"}
{"compound": "CCOC(=O)c1cnc(SCc2ccc(Cl)cc2)nc1N", "T2": "none", "T3": "none"}
{"compound": "CN(CC1CCN(c2ccccc2)C1)C(=O)c1cc2n(n1)CCCNC2", "stereo": "configuration not stated", "T1": "none", "T2": "none", "T3": "none"}
{"compound": "C=CCN1C(=O)C2(C(C(=O)OC)=C(C)OC(N)=C2C(=O)OCC)c2ccccc21", "stereo": "configuration not stated", "T1": "none", "T2": "none", "T3": "none"}
{"compound": "CCOC(=O)c1ccc(Nc2nc3ccc(C)cc3n3cnnc23)cc1", "T1": "none", "T2": "none", "T3": "none"}
{"compound": "CCCn1nccc1C(=O)N1C[C@H](N(C)C)C[C@H]1CO", "T1": "none", "T2": "none", "T3": "none"}
{"compound": "Cc1nc(CNC(C)COc2ccccc2)cs1", "stereo": "configuration not stated", "T1": "none", "T2": "none", "T3": "none"}
{"compound": "COc1ccc(Nc2nc(-c3ccc(OC)c(OC)c3)no2)c(OC)c1", "T2": "none", "T3": "none"}
{"compound": "Nc1nc(=O)c2c(CCc3ccc(C(=O)N[C@@H](CCC(=O)O)C(=O)O)cc3)c[nH]c2[nH]1", "T1": "none", "T2": "none", "T3": "none"}
{"compound": "CN(CC1(CO)CCOCC1)C(=O)C1CC(=O)N(Cc2ccncc2)C1", "stereo": "configuration not stated", "T1": "none", "T2": "none", "T3": "none"}
{"compound": "Nc1nc(NCCO)cc(N2CCC(Oc3ccc(F)cc3)CC2)n1", "T1": "hit", "T2": "none", "T3": "none"}
{"compound": "COC(=O)C1=C(C)OC(N)=C(C#N)C12C(=O)Nc1ccc(Br)cc12", "stereo": "configuration not stated", "T1": "none", "T2": "none", "T3": "none"}
{"compound": "O=C1OCCCN1CCn1cnc(-c2ccccc2)c1-c1ccc(CO)o1", "T1": "none", "T2": "none", "T3": "none"}
{"compound": "CCOc1ccc2c(C)c(C(=O)N[C@H]3CC[C@H]3N)oc2c1OCC", "T1": "none", "T2": "none", "T3": "none"}
{"compound": "COc1ccc(N2CC(=O)C(c3nc(C)c(C)s3)=C2N)c(OC)c1", "T2": "none", "T3": "none"}
{"compound": "Cc1cc(C)n2ncc(C(=O)N3CCNCC3C(=O)N3CCOCC3)c2n1", "stereo": "configuration not stated", "T1": "none", "T2": "none", "T3": "none"}
{"compound": "NC1=C(c2nc3ccccc3[nH]2)C(=O)CN1c1ccc(O)cc1", "T2": "none", "T3": "none"}
{"compound": "Cc1cccc(CN2CCN(C(=O)[C@H](N)CC(C)C)CC2=O)c1", "T1": "none", "T2": "none", "T3": "none"}
{"compound": "Cc1ccc(NCC(O)C(O)C(O)CO)cc1C", "stereo": "configuration not stated", "T1": "none", "T2": "none", "T3": "none"}
{"compound": "C=CCN1C(=O)C2(C(C#N)=C(N)OC(C)=C2C(C)=O)c2ccccc21", "stereo": "configuration not stated", "T1": "none", "T2": "none", "T3": "none"}
{"compound": "CCOC(=O)c1cc(CNCCc2cccs2)on1", "T1": "none", "T2": "none", "T3": "none"}
{"compound": "Cc1nc(CCC(=O)N2C[C@@H](CN3CCN(C)CC3)[C@@H](CO)C2)n[nH]1", "T1": "none", "T2": "none", "T3": "none"}